{"source": "patent US7220575B2", "about": "“Melanoma differentiation associated gene-5 and promoter and uses thereof” (priority 2000, dated 2007)", "key": {"mda-5 expression": {"tested_on": "mda-5 expression", "assay": "Northern blot analysis of mda-5 expression in HO-1 human melanoma cells", "format": "cell-based", "settings": "HO-1 cells; single inducers", "procedure": "FIGS. 2A–2B. Northern blot analysis of mda-5 expression by various compounds inducing differentiation in HO-1 human melanoma cells. RNA samples were extracted from cells treated as indicated for 24 hr. FIG. 2A. HO-1 human melanoma cells. FIG. 2B. Early passage human skin fibroblast cells. Northern hybridization was performed as in Materials and Methods.\nFIGS. 4A–4B. Northern blot analysis of mda-5 expression by ligands for various membrane receptors. RNA samples were extracted from cells treated as indicated for 24 hr. FIG. 4A. HO-1 human melanoma cells. FIG. 4B. Early passage human skin fibroblast cells. Northern hybridization was performed as in Materials and Methods.\nFIG. 5. Northern blot analysis and time course of mda-5 expression. RNA samples were extracted from HO-1 cells treated with the indicated reagents and harvested at the indicated time after treatment. Northern blotting was performed as in Materials and Methods.\nFIGS. 7A–7C. […] A. Northern blot analysis of mda-5. […] Cells were harvested at the indicated time after actinomycin D treatment. Northern hybridization was performed as in Materials and Methods. FIG. 7B. Nuclear run-on assays for determining mda-5 transcription rates. Nuclei were prepared from HO-1 melanoma cells treated with the indicated reagent(s) for 4 hr. Blots were prepared and hybridized as described in Materials and Methods. […] FIG. 7C. […]"}, "mda-5 promoter": {"tested_on": "mda-5 promoter", "assay": "mda-5 promoter luciferase reporter in HO-1 cells (transient and stable clones)", "format": "cell-based, human", "settings": "varies between clones"}}, "note": "Some results were stated once for a whole list of compounds, not compound by compound.", "data": [{"substance": "poly IC", "values": [{"measurement": "induction of mda-5 expression, higher than with other inducers", "setting": "mda-5 expression", "result": "≥ 5", "unit": "fold"}, {"measurement": "induction of luciferase activity in stable HO-1 promoter clones", "setting": "mda-5 promoter", "result": "10 to 100", "unit": "fold"}]}]}
